Data reported in PubChem BioAssay AID2549 (National Center for Advancing Translational Sciences (NCATS), 2010).
Hit rate of the full screen: of about 240,000 compounds, about 1,300 (0.54%) were called active. The shares of active, inactive and inconclusive entries below differ from those in the screen. Calls follow the shape of the dose curve; as a rule, active = well fitted inhibition curve with a large enough effect; inconclusive = small, poorly fitted or top-dose-only effect; inactive = flat fitted curve, though single readings scatter. A potency beside an inconclusive call is a rough fit, not a confirmed value.

Chains of the proteins cited; added tags and fusions are not shown. Lines headed by an entry give the natural chain unless they say otherwise; changes in a name come on top.
UniProt P46063: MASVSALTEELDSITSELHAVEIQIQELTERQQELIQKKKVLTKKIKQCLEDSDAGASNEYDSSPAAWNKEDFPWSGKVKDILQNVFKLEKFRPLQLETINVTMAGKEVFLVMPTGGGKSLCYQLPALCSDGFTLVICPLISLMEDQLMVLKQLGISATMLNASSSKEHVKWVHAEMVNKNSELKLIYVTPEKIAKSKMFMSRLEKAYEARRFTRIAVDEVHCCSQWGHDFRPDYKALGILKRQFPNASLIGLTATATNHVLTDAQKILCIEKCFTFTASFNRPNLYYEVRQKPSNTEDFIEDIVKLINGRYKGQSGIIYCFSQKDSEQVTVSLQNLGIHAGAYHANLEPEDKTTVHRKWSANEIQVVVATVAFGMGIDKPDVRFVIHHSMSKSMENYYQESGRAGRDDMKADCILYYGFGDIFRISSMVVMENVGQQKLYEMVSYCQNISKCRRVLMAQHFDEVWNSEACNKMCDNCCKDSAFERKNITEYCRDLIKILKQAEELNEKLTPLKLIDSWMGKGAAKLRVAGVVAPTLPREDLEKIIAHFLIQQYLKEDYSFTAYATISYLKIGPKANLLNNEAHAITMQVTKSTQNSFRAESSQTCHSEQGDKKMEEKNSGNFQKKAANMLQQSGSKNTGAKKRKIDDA

The compounds below were run against ATP-dependent DNA helicase Q1 (Homo sapiens) (UniProt P46063) (assay: qHTS Assay for Inhibitors of RecQ-Like Dna Helicase 1 (RECQ1)). Conditions: RECQ1 DNA unwinding, red fluorescence kinetic read; series mostly up to 57.3 µM.
In short: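 50 nM RECQ1T1 preincubated 15 min with compound in Tris pH 8.0 buffer with MgCl2, DTT, Tween-20 and 2.5 ug/ml poly(dI-dC); started with 200 nM TAMRA/BHQ-2 forked duplex and 2 mM ATP. Unwinding read as fluorescence (525/598 nm), two reads 2 h apart.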
Also: nearly all actives have a fitted effect of over 30% in size.
Potency is read from the fitted curve at half-maximal effect.

Compound	Potency	outcome
Cc1ccc(NC(=S)NNC(=O)CSc2nc3ccccc3c(=O)n2-c2ccc(C)cc2)cc1	inconclusive: 28.2 µM [inhibitor, single point]	–
CC(C)=CCC/C(C)=C/CO/N=C1/C[C@@H](O)[C@@H](O)[C@@H]2[C@@H]3C(=O)N(c4cccc(Oc5ccccc5)c4)C(=O)[C@H]3CC[C@@H]12	–	inactive [at 11.5 µM]
Cc1ncc(CN2CCC(CO)(CCOc3ccccc3)CC2)s1	inconclusive: 5.01 µM [inhibitor, partial curve, poor fit]	–
O=C(c1cc(-c2ccco2)on1)N1CCCc2ccccc21	active: 39.8 µM	–
Cc1cccc(N=C2NC(=O)/C(=C/C=C/c3ccco3)S2)c1	active: 35.5 µM	–
CCOC(=O)c1cnc2c(C#N)cnn2c1N	inconclusive: 3.55 µM [inhibitor, full curve, poor fit]	–
COc1ccc2c(c1)CC[C@@H]1[C@@H]2CC[C@]2(C)C(=O)CC[C@@H]12	inconclusive: 1.58 µM [inhibitor, full curve]	–
CCCCOC(=O)CSC1=C(C#N)C(c2ccccc2OC)C(C#N)C(=O)N1 (centres undefined)	active: 14.1 µM	–
Cc1ccc(N2CC(C(=O)NCc3ccc(C)n3C)CC2=O)cc1 (centres undefined)	inconclusive: 39.8 µM [inhibitor, single point]	–
COc1ccc2[nH]cc(CCNc3nc(-c4ccc(N(C)C)cc4)nc4ccccc34)c2c1	inconclusive: 12.6 µM [inhibitor, partial curve]	–
Cn1c(SCc2cc(=O)n3cc(Br)ccc3n2)nnc1C1COc2ccccc2O1 (centres undefined)	inactive	–
Cc1cc(CN(C)C(=O)c2cc(COc3ccc4ncccc4c3)on2)on1	inconclusive: 22.4 µM [inhibitor, single point]	–
COc1ccc(CN2C(=O)c3ccccc3C2C(=O)NC2CCCC(C)C2C)c(OC)c1 (centres undefined)	active: 3.16 µM	–
COc1ccc(OCC(=O)Nc2nc3ccc(NC(C)=O)cc3s2)cc1	inconclusive: 35.5 µM [inhibitor, single point]	–
Clc1ccccc1N1CCN(c2ncnc3nc[nH]c23)CC1	active: 28.2 µM	–
CCCNc1c(F)c(F)c2c(C)c3ccccc3nc2c1F	inactive	–
O=C(O)CN(CC(=O)O)Cc1cc2c(-c3ccccc3C(=O)O)c3cc(CN(CC(=O)O)CC(=O)O)c(=O)cc-3oc2cc1O	active: 28.2 µM	–
CCC(=O)NC[C@H](Cc1ccc(OCCc2nc(-c3ccccc3)oc2C)cc1)N/C(C)=C\C(=O)c1ccc(C(F)(F)F)cc1	inactive	–
O=C(NCCC1=CCCCC1)c1cccc2c1C(=O)N(C1CCCCC1)C2	inactive	–

Laid out differently: results already given.
Clc1ccccc1N1CCN(c2ncnc3nc[nH]c23)CC1
  Potency: active: 28.2 µM
CCCNc1c(F)c(F)c2c(C)c3ccccc3nc2c1F
  Potency: inactive
